In PMC6712171:
The exact form of at least one protein or probe is not confirmed. No signal at the amounts used counts as a negative.

Test system: M.DraR1 (ORF16000) (Deinococcus radiodurans R1)
Assay: EMSA
Settings: 20 mM Tris-HCl pH 8.0, 100 mM KCl, 7 mM beta-mercaptoethanol, 0.1 mM EDTA, 0.1 mg/mL BSA, 0.5 mM or no SAM, 100 uM dsDNA, 0-1000 uM protein, 60 min at 4 C, recombinant protein, protein details: His-MBP (TEV-cleaved, removed)

| Sequence | binding result (0.5 mM SAM) | binding result |
| --- | --- | --- |
| CAGGCCGCGGCT / TAGCCGCGGCCT [S1 cassette] | binds |  |
| CAGGCCGCGTCT / TAGACGCGGCCT [S7 cassette] |  | no binding |
| CAGGCCGCTGCT / TAGCAGCGGCCT [S6 cassette] |  | no binding |
| CAGGCCGTGGCT / TAGCCACGGCCT [S5 cassette] |  | no binding |
| CAGGCCTCGGCT / TAGCCGAGGCCT [S4 cassette] |  | no binding |
| CAGGCTGCGGCT / TAGCCGCAGCCT [S3 cassette] |  | no binding |
| CAGGTCGCGGCT / TAGCCGCGACCT [S2 cassette] |  | no binding |
